Source: publication PMC7819943, “Rice protein-binding microarrays: a tool to detect cis-acting elements near promoter regions in rice”
The other results are listed elsewhere or left out.

target: T1, OsSMF1 (Oryza sativa, UniProt Q6ZLB0 1-436); assay: protein-binding microarray (RPBM); PBS, 2% BSA, 51.3 ng/ul salmon testes DNA, 50 uM zinc acetate, 200 nM TF, 25 C, 1 h; high values mean tight binding; conditions: protein: recombinant; tags: N-terminal polyhistidine and DsRed monomer fusion (pET32a); chain copies: 2; label: CyDye5-dUTP incorporated in the synthesized complementary strand; 3' TTTTT single-stranded linker to array surface; dsDNA, one strand shown
T1 sequence: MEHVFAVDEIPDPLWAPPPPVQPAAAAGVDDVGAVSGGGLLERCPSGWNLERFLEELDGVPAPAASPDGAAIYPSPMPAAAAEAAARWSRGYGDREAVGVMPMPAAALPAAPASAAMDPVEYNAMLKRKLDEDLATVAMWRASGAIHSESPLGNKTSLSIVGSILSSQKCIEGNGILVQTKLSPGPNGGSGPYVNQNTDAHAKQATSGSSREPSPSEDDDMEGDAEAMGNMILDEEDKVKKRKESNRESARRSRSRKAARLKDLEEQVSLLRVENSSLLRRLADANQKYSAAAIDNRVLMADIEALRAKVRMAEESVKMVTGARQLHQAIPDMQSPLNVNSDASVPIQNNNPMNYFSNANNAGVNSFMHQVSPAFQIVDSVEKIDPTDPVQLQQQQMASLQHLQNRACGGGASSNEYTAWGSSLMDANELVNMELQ
Summary of the method: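 The binding signal for each feature is its fluorescence intensity in arbitrary units. An Axon 4000B scanner was used to read a custom Agilent array that had been made double-stranded with Cy5-dUTP primer extension, blocked with 2% BSA, incubated at 25 °C for 1 h with 200 nM protein in PBS, 2% BSA, salmon testes DNA and 50 µM zinc acetate, and washed. The protein was an N-terminal polyhistidine–DsRed transcription factor fusion from E. coli BL21-CodonPlus, purified on Ni–NTA.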

Row | Sequence | binding signal
1 | AGGAACGACACTGAACCGTTCCACTCCATGGCAGAAATCTCGGAGTCACCTAGTGCAG | 6450 fluorescence intensity (a.u.)
2 | TTCCCAGCCCACCACGTCCTCTCTGGCTTCATGTAACATCCGGAGTCACCTAGTGCAG | 4010 fluorescence intensity (a.u.)
3 | CATTGCCATGCCTATGCGTTTGTAACAGAATTTAGAGGAGCGGAGTCACCTAGTGCAG | 16300 fluorescence intensity (a.u.)
4 | GCATGCCCATGCAAAACCAGCTCAGCTCACTACACTACACCGGAGTCACCTAGTGCAG | 3250 fluorescence intensity (a.u.)
5 | CCCCTCAAGGGATGACTGGACTTTTCCAAATGACGAATTTCGGAGTCACCTAGTGCAG | 3290 fluorescence intensity (a.u.)
6 | ACCACCAGTAGAAGTAAAACCGCGGGGCCCACGTGTAGGCCGGAGTCACCTAGTGCAG | 5330 fluorescence intensity (a.u.)
7 | CCCACCATTGCCGCCGTGTCCGGCAACCTAACGAACCTCGCGGAGTCACCTAGTGCAG | 4100 fluorescence intensity (a.u.)
8 | CTGAACACACAGCAGGCTCACGTAGGCCACGCCACCTCACCGGAGTCACCTAGTGCAG | 4450 fluorescence intensity (a.u.)
9 | TAACACTAGAATGATTCAGACAGGCCAAGCCTCCCAAGGTCGGAGTCACCTAGTGCAG | 3190 fluorescence intensity (a.u.)
10 | ACATAGCAGCAGGCGGCGACCTCGGTTTACGGAAAGTCAACGGAGTCACCTAGTGCAG | 24600 fluorescence intensity (a.u.)
11 | CCACGCGTCGTCGACGTACTGCGCGATGACGGCGGACTCGCGGAGTCACCTAGTGCAG | 4700 fluorescence intensity (a.u.)
12 | CTTGCCGCAGCGCCTGCGAGGCGTTCGGCCGACCTGAGTACGGAGTCACCTAGTGCAG | 29500 fluorescence intensity (a.u.)
13 | TTGTCGTCCACGCCGCCATCTCCTTGGTCATCCGCAACAACGGAGTCACCTAGTGCAG | 3430 fluorescence intensity (a.u.)
14 | GTGTTGTGTCGGGTGGTATGTTATTTACTCGTGTTGAGTTCGGAGTCACCTAGTGCAG | 3500 fluorescence intensity (a.u.)
15 | CCAGGCTACCGGATCCGGTGACCCCGACCGCACTGCGGCGCGGAGTCACCTAGTGCAG | 3950 fluorescence intensity (a.u.)
16 | TTTATAGACACTTTAGCTGACTGTTGGAGTGGAATAATACCGGAGTCACCTAGTGCAG | 3280 fluorescence intensity (a.u.)
17 | TGGATCGAACACACATACGTGGCAACCAAGTCTTCTGCTCCGGAGTCACCTAGTGCAG | 12600 fluorescence intensity (a.u.)
18 | GCGCGGAGGCGTTCAGGAACGCGGACTTGGTGACGAAGTGCGGAGTCACCTAGTGCAG | 4480 fluorescence intensity (a.u.)
19 | GTGGGTGCTCTCATGGTGAGAGATTACGTGGAGAAATGAGCGGAGTCACCTAGTGCAG | 4690 fluorescence intensity (a.u.)
20 | CTCGTTTCTCCTACCTTTGGCCTGCCCATTAATGGCCCCTCGGAGTCACCTAGTGCAG | 3400 fluorescence intensity (a.u.)
21 | GTACGTCGCCGCGCTCTTGGAGCTTGGTCAACCCTCGGCACGGAGTCACCTAGTGCAG | 3270 fluorescence intensity (a.u.)

Row | Sequence | binding signal
22 | GCCATCGCCGCCCTGAAGCCCCAATCCAGGGCGGCCTCCCCGGAGTCACCTAGTGCAG | 3810 fluorescence intensity (a.u.)
23 | CAACACTTTATCCATGTATATCATGCTGTTTCATTACATTCGGAGTCACCTAGTGCAG | 4400 fluorescence intensity (a.u.)
24 | ATTTGGTTGTCAGCGTGGCGTCACAACTCTGGGCCGTTGCCGGAGTCACCTAGTGCAG | 8720 fluorescence intensity (a.u.)
25 | GCAGCAATATAATGGCGACGGCGGCGAGGCTGCTCCTCCTCGGAGTCACCTAGTGCAG | 29800 fluorescence intensity (a.u.)
26 | AGTGTCATACTCTGCTCATGACATCATACTGTTATCAAGTCGGAGTCACCTAGTGCAG | 3340 fluorescence intensity (a.u.)
27 | TTCACATATAAATTAATAAAGAAATGGTGGGGCCACGTGGCGGAGTCACCTAGTGCAG | 6520 fluorescence intensity (a.u.)
28 | GAGAAGCATATGCTGCTTTGCTTTGTCAGCTTCCTTGGGTCGGAGTCACCTAGTGCAG | 9360 fluorescence intensity (a.u.)
29 | GAATGCCTTTTCCACATGTACATGTGGGTACCTGCACTACCGGAGTCACCTAGTGCAG | 4650 fluorescence intensity (a.u.)
30 | AACCCCAGAAACCAGAGGCGGGCTGGTTGATCCATTCTTTCGGAGTCACCTAGTGCAG | 45000 fluorescence intensity (a.u.)
31 | GACCCACCTTTGGTGGGGTAGCTGGTGCCAGCGGAAGGGGCGGAGTCACCTAGTGCAG | 3380 fluorescence intensity (a.u.)
32 | GTTTATTTGGGAGTAACTTATTCTACGTAAGCTTCTAATGCGGAGTCACCTAGTGCAG | 3410 fluorescence intensity (a.u.)
33 | GGTTGCCATATTTGCTTGTTATGCCGATGTGGACAAGCTTCGGAGTCACCTAGTGCAG | 5600 fluorescence intensity (a.u.)
34 | CGGCACTGACACGTGTGTACCTCCGCCGAGTCGGTCTCCCCGGAGTCACCTAGTGCAG | 10300 fluorescence intensity (a.u.)
35 | TCCCGGCGCATGACAGCCACGACGTCCCACATGAGCTGGTCGGAGTCACCTAGTGCAG | 3870 fluorescence intensity (a.u.)
36 | AAGGCGGCGGGTTCGTCCACCTCCTTGCGCCCACCCCTGACGGAGTCACCTAGTGCAG | 4410 fluorescence intensity (a.u.)
37 | GACGACCAGTTAGCCATCGTCGGTCGACGACCAATCAGATCGGAGTCACCTAGTGCAG | 4660 fluorescence intensity (a.u.)
38 | CCTAATTCCTACTCGTACTACGTTTCTAAATCCAATGCATCGGAGTCACCTAGTGCAG | 3410 fluorescence intensity (a.u.)
39 | TAGGGTTTTCTCGTCGCCGGGTCGGTGTCATCTCTCCTGCCGGAGTCACCTAGTGCAG | 4110 fluorescence intensity (a.u.)
40 | GTGGTGTTGGATAGTTTGATAGGCTGCTTCCCTACTAGGCCGGAGTCACCTAGTGCAG | 3170 fluorescence intensity (a.u.)
41 | GCTAATGCTGCCGTTCGTGTCACATCAGCGACCGGATTCACGGAGTCACCTAGTGCAG | 5840 fluorescence intensity (a.u.)
42 | CGCATGCGCGCCAGCAGCTAGCAACCCCTTTAAATATGACCGGAGTCACCTAGTGCAG | 16900 fluorescence intensity (a.u.)

Single entries from the results shown.
binding signal, GTTTATTTGGGAGTAACTTATTCTACGTAAGCTTCTAATGCGGAGTCACCTAGTGCAG reads 3410 fluorescence intensity (a.u.)
binding signal, ATTTGGTTGTCAGCGTGGCGTCACAACTCTGGGCCGTTGCCGGAGTCACCTAGTGCAG reads 8720 fluorescence intensity (a.u.)
binding signal, AAGGCGGCGGGTTCGTCCACCTCCTTGCGCCCACCCCTGACGGAGTCACCTAGTGCAG reads 4410 fluorescence intensity (a.u.)
